This note sets out measurements from publication PMC8864472.

By UniProt entry, the sequences of proteins in these tests, tags left out.
UniProt O14939: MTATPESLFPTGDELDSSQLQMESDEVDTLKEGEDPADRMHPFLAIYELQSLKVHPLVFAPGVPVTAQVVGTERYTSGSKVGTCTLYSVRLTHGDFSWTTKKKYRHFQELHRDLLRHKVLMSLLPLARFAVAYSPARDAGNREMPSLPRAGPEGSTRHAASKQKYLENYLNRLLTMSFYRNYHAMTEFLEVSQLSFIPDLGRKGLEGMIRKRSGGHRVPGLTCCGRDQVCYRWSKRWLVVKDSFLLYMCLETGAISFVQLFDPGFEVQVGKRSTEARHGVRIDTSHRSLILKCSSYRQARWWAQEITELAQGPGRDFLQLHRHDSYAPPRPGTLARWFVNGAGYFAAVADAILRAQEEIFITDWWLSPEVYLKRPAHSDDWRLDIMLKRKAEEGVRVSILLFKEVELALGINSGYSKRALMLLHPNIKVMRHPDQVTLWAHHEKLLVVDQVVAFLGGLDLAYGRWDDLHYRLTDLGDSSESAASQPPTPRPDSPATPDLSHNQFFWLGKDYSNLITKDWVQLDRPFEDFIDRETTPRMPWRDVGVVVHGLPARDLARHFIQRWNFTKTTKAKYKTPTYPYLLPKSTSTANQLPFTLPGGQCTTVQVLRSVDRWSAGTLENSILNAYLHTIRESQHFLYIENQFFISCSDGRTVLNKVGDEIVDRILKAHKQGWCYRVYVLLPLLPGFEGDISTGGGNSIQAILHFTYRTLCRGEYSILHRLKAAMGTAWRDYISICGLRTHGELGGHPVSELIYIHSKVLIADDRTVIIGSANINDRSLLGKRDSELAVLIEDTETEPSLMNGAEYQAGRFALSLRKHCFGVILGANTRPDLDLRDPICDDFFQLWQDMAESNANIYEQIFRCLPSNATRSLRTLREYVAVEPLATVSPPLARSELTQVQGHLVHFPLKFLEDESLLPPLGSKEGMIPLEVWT
UniProt P08754: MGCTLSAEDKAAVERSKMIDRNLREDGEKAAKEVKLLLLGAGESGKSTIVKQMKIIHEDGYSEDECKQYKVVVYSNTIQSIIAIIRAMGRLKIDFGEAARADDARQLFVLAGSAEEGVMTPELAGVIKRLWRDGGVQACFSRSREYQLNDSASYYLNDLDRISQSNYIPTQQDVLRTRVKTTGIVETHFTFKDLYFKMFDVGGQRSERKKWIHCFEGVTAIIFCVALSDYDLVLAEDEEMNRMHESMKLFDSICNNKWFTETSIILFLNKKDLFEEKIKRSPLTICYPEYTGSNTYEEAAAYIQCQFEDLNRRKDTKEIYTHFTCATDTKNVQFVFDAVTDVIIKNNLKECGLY
UniProt P68371: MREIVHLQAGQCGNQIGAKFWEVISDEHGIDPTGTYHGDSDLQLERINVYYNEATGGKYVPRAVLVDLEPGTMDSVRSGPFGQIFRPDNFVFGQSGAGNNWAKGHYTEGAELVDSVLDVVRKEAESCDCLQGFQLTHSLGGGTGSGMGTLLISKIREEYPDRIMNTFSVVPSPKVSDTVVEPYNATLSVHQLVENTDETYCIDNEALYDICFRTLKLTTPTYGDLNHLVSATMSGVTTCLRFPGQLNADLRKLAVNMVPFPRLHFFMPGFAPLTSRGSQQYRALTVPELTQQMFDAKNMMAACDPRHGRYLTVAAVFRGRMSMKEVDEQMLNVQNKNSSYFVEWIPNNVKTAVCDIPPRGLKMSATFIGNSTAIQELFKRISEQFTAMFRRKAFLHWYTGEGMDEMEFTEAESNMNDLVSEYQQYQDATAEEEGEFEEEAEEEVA
UniProt Q9BQE3: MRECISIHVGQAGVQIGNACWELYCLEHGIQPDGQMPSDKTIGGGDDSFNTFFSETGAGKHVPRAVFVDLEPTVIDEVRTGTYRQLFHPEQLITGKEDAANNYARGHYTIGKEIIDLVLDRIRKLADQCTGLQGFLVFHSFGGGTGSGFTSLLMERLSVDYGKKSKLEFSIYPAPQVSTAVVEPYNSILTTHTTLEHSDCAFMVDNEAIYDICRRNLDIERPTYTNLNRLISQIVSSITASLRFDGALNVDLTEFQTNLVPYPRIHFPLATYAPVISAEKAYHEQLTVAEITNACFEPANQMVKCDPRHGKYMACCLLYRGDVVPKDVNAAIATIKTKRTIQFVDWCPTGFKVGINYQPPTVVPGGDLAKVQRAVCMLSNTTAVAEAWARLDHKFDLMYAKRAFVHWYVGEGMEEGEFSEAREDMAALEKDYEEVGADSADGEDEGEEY
UniProt Q9BVA1: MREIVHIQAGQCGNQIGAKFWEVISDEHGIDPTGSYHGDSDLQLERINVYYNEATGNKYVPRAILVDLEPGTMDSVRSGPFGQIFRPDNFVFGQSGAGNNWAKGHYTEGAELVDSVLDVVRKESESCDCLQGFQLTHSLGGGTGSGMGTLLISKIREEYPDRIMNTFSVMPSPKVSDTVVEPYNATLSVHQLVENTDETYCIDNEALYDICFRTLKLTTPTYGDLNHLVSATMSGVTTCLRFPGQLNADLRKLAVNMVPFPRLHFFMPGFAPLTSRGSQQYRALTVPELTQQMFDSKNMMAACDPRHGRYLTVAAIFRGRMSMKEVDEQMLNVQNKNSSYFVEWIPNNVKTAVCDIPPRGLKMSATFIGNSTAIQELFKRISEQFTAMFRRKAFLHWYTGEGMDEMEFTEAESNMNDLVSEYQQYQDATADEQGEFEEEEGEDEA

Test in all cases: affinity purification with mass spectrometry; TAP-MS: C-terminal SFB-tagged PLD bait from stable HEK293A cells, lysed in NETN buffer (100 mM NaCl, 20 mM Tris-HCl pH 8.0, 0.5 mM EDTA, 0.5% Nonidet P-40), streptavidin beads, biotin elution, S protein beads, 4 °C; HCIP: SAINT score at least 0.8 and raw spectra count at least 2
In one experiment the target is T1, PLD5 (human) (UniProt Q8N7P1).
T1 sequence: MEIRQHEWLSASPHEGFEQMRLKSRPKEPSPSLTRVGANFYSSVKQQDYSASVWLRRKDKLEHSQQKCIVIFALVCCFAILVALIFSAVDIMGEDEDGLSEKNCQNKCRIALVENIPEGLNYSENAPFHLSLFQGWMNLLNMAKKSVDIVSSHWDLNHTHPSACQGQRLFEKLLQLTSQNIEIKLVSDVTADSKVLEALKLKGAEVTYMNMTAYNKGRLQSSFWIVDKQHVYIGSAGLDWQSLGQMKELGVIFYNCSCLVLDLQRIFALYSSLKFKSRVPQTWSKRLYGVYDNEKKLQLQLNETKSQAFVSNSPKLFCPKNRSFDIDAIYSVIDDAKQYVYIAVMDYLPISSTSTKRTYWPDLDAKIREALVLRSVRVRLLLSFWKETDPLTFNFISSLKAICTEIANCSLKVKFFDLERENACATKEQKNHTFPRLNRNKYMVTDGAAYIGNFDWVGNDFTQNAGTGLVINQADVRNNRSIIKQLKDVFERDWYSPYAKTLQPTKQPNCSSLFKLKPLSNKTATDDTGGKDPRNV

Another experiment has as its target T2, PLD6 (human) (UniProt Q8N2A8).
T2 sequence: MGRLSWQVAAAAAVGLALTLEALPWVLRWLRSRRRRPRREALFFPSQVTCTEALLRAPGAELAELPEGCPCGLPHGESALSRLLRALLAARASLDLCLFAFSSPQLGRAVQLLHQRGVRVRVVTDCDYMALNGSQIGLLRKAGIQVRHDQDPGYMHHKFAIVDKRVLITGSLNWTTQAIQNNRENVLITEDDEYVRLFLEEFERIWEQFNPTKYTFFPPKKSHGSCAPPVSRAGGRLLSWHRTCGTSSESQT

The target of another experiment is PLD2 (human) (UniProt O14939).
The next experiment has as its target T3, phospholipase D1 (human) (UniProt Q13393).
T3 sequence: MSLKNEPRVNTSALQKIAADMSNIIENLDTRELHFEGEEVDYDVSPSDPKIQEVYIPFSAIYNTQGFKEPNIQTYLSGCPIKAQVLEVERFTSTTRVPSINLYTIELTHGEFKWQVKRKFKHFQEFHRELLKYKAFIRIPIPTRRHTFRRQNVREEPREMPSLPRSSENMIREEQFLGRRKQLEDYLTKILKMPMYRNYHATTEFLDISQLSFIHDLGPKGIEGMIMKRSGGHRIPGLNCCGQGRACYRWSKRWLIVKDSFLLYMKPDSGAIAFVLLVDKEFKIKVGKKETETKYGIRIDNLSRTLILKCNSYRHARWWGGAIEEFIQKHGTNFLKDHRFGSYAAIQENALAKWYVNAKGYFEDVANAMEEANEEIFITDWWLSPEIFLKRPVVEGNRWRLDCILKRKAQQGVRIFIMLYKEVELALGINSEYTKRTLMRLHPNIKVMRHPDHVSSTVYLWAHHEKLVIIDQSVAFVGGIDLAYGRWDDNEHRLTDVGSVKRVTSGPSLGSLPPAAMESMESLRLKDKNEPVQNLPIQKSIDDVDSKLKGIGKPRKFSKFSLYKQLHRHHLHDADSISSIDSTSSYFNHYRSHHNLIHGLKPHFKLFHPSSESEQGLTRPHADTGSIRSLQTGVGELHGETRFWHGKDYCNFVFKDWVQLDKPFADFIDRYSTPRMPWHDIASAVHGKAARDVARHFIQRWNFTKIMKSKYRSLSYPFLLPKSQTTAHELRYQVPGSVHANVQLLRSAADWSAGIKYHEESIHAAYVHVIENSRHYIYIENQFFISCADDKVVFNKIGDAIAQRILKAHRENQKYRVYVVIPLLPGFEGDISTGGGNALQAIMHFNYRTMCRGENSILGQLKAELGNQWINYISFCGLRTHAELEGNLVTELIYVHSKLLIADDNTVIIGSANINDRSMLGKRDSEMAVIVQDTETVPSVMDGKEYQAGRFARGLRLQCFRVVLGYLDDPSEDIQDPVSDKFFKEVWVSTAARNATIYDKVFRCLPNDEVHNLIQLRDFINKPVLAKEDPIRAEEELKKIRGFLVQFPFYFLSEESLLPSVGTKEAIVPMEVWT

These are yes or no findings as the source states them, for the method shown. Binding seen in cells or lysates may run through a third protein. These calls come from enrichment with a bait or labelling near it, and not all partners need be listed.

Turning to GNAI3 (from UniProt P08754 1-354), in the experiment with PLD5 (human), the binding entry was “binds”.

With TUBB4B (from UniProt P68371 1-445), the binding result in the experiment with PLD6 (human) and with PLD2 (human) was “binds” throughout.

For TUBA1C (from UniProt Q9BQE3 1-449), the binding entry with PLD6 (human) and in the experiment with PLD2 (human) was “binds” in each case.

Regarding TUBB2B (from UniProt Q9BVA1 1-445), the binding result in the experiment with PLD6 (human) and with PLD2 (human) was “binds” each time.

B1: TTC1 (protein, UniProt Q99614 1-292)
chain: MGEKSENCGVPEDLLNGLKVTDTQEAECAGPPVPDPKNQHSQSKLLRDDEAHLQEDQGEEECFHDCSASFEEEPGADKVENKSNEDVNSSELDEEYLIELEKNMSDEEKQKRREESTRLKEEGNEQFKKGDYIEAESSYSRALEMCPSCFQKERSILFSNRAAARMKQDKKEMAINDCSKAIQLNPSYIRAILRRAELYEKTDKLDEALEDYKSILEKDPSIHQAREACMRLPKQIEERNERLKEEMLGKLKDLGNLVLRPFGLSTENFQIKQDSSTGSYSINFVQNPNNNR
Regarding B1, the binding entry with PLD5 (human) was “binds”.

B2: PJA2 (protein, UniProt O43164 1-708)
chain: MSQYTEKEPAAMDQESGKAVWPKPAGGYQTITGRRYGRRHAYVSFKPCMTRHERSLGRAGDDYEVLELDDVPKENSSGSSPLDQVDSSLPSEPIFEKSETEIPTCGSALNQTTESSQSFVAVHHSEEGRDTLGSSTNLHNHSEGEYIPGACSASSVQNGIALVHTDSYDPDGKHGEDNDHLQLSAEVVEGSRYQESLGNTVFELENREAEAYTGLSPPVPSFNCEVRDEFEELDSVPLVKSSAGDTEFVHQNSQEIQRSSQDEMVSTKQQNNTSQERQTEHSPEDAACGPGHICSEQNTNDREKNHGSSPEQVVRPKVRKLISSSQVDQETGFNRHEAKQRSVQRWREALEVEESGSDDLLIKCEEYDGEHDCMFLDPPYSRVITQRETENNQMTSESGATAGRQEVDNTFWNGCGDYYQLYDKDEDSSECSDGEWSASLPHRFSGTEKDQSSSDESWETLPGKDENEPELQSDSSGPEEENQELSLQEGEQTSLEEGEIPWLQYNEVNESSSDEGNEPANEFAQPAFMLDGNNNLEDDSSVSEDLDVDWSLFDGFADGLGVAEAISYVDPQFLTYMALEERLAQAMETALAHLESLAVDVEVANPPASKESIDGLPETLVLEDHTAIGQEQCCPICCSEYIKDDIATELPCHHFFHKPCVSIWLQKSGTCPVCRRHFPPAVIEASAAPSSEPDPDAPPSNDSIAEAP
For the molecule B2, the binding entry with phospholipase D1 (human) is reported as “binds”.

B3: ANKMY2 (protein, UniProt Q8IV38 1-441)
chain: MVHIKKGELTQEEKELLEVIGKGTVQEAGTLLSSKNVRVNCLDENGMTPLMHAAYKGKLDMCKLLLRHGADVNCHQHEHGYTALMFAALSGNKDITWVMLEAGAETDVVNSVGRTAAQMAAFVGQHDCVTIINNFFPRERLDYYTKPQGLDKEPKLPPKLAGPLHKIITTTNLHPVKIVMLVNENPLLTEEAALNKCYRVMDLICEKCMKQRDMNEVLAMKMHYISCIFQKCINFLKDGENKLDTLIKSLLKGRASDGFPVYQEKIIRESIRKFPYCEATLLQQLVRSIAPVEIGSDPTAFSVLTQAITGQVGFVDVEFCTTCGEKGASKRCSVCKMVIYCDQTCQKTHWFTHKKICKNLKDIYEKQQLEAAKEKRQEENHGKLDVNSNCVNEEQPEAEVGISQKDSNPEDSGEGKKESLESEAELEGLQDAPAGPQVSEE
On to B3, for which the binding entry with phospholipase D1 (human), with PLD2 (human) and with PLD5 (human) was “binds” throughout.

B4: PCCB (protein, UniProt P05166 29-539)
chain: CSQATSVNERIENKRRTALLGGGQRRIDAQHKRGKLTARERISLLLDPGSFVESDMFVEHRCADFGMAADKNKFPGDSVVTGRGRINGRLVYVFSQDFTVFGGSLSGAHAQKICKIMDQAITVGAPVIGLNDSGGARIQEGVESLAGYADIFLRNVTASGVIPQISLIMGPCAGGAVYSPALTDFTFMVKDTSYLFITGPDVVKSVTNEDVTQEELGGAKTHTTMSGVAHRAFENDVDALCNLRDFFNYLPLSSQDPAPVRECHDPSDRLVPELDTIVPLESTKAYNMVDIIHSVVDEREFFEIMPNYAKNIIVGFARMNGRTVGIVGNQPKVASGCLDINSSVKGARFVRFCDAFNIPLITFVDVPGFLPGTAQEYGGIIRHGAKLLYAFAEATVPKVTVITRKAYGGAYDVMSSKHLCGDTNYAWPTAEIAVMGAKGAVEIIFKGHENVEAAQAEYIEKFANPFPAAVRGFVDDIIQPSSTRARICCDLDVLASKKVQRPWRKHANIPL
Consider B4, for which the binding result with PLD5 (human) is recorded as “binds”.

B5: UNC45A (protein, UniProt Q9H3U1 1-944)
chain: MTVSGPGTPEPRPATPGASSVEQLRKEGNELFKCGDYGGALAAYTQALGLDATPQDQAVLHRNRAACHLKLEDYDKAETEASKAIEKDGGDVKALYRRSQALEKLGRLDQAVLDLQRCVSLEPKNKVFQEALRNIGGQIQEKVRYMSSTDAKVEQMFQILLDPEEKGTEKKQKASQNLVVLAREDAGAEKIFRSNGVQLLQRLLDMGETDLMLAALRTLVGICSEHQSRTVATLSILGTRRVVSILGVESQAVSLAACHLLQVMFDALKEGVKKGFRGKEGAIIVDPARELKVLISNLLDLLTEVGVSGQGRDNALTLLIKAVPRKSLKDPNNSLTLWVIDQGLKKILEVGGSLQDPPGELAVTANSRMSASILLSKLFDDLKCDAERENFHRLCENYIKSWFEGQGLAGKLRAIQTVSCLLQGPCDAGNRALELSGVMESVIALCASEQEEEQLVAVEALIHAAGKAKRASFITANGVSLLKDLYKCSEKDSIRIRALVGLCKLGSAGGTDFSMKQFAEGSTLKLAKQCRKWLCNDQIDAGTRRWAVEGLAYLTFDADVKEEFVEDAAALKALFQLSRLEERSVLFAVASALVNCTNSYDYEEPDPKMVELAKYAKQHVPEQHPKDKPSFVRARVKKLLAAGVVSAMVCMVKTESPVLTSSCRELLSRVFLALVEEVEDRGTVVAQGGGRALIPLALEGTDVGQTKAAQALAKLTITSNPEMTFPGERIYEVVRPLVSLLHLNCSGLQNFEALMALTNLAGISERLRQKILKEKAVPMIEGYMFEEHEMIRRAATECMCNLAMSKEVQDLFEAQGNDRLKLLVLYSGEDDELLQRAAAGGLAMLTSMRPTLCSRIPQVTTHWLEILQALLLSSNQELQHRGAVVVLNMVEASREIASTLMESEMMEILSVLAKGDHSPVTRAAAACLDKAVEYGLIQPNQDGE
In the case of B5, the binding entry in the experiment with PLD5 (human) is “binds”.
